In publication PMC11557686 one finds binding data, which are given here for three substances.

Protein sequences, listed by entry. Tags and fused reporters are not part of them. Lines headed by an entry give the natural chain unless they say otherwise; changes in a name come on top.
UniProt O15260: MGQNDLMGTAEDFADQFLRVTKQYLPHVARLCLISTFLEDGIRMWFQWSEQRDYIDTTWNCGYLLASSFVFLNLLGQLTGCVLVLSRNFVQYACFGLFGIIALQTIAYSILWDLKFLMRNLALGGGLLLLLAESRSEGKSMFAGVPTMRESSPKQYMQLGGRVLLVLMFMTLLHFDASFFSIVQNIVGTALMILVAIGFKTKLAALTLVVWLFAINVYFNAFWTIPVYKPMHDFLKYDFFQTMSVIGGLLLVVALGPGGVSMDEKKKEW
UniProt Q8NBP7: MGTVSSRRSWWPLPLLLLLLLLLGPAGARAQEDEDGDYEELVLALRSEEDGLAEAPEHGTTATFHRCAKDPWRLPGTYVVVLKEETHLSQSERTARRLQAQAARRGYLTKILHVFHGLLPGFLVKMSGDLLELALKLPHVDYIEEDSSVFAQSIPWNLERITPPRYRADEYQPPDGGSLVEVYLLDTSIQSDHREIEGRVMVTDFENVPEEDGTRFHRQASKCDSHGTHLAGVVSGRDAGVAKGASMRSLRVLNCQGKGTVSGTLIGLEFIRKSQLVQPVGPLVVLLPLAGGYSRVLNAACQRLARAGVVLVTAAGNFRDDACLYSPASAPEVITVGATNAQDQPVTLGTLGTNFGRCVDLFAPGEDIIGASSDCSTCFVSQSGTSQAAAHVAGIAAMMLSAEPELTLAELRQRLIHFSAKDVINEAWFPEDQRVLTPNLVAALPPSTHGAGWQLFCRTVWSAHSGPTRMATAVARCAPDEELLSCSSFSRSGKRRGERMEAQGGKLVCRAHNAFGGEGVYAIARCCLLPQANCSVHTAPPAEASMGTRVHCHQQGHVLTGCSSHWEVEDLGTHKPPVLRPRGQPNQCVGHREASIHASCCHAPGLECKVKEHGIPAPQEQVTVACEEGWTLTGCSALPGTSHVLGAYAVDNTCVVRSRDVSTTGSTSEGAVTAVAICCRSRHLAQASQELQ
UniProt O95486: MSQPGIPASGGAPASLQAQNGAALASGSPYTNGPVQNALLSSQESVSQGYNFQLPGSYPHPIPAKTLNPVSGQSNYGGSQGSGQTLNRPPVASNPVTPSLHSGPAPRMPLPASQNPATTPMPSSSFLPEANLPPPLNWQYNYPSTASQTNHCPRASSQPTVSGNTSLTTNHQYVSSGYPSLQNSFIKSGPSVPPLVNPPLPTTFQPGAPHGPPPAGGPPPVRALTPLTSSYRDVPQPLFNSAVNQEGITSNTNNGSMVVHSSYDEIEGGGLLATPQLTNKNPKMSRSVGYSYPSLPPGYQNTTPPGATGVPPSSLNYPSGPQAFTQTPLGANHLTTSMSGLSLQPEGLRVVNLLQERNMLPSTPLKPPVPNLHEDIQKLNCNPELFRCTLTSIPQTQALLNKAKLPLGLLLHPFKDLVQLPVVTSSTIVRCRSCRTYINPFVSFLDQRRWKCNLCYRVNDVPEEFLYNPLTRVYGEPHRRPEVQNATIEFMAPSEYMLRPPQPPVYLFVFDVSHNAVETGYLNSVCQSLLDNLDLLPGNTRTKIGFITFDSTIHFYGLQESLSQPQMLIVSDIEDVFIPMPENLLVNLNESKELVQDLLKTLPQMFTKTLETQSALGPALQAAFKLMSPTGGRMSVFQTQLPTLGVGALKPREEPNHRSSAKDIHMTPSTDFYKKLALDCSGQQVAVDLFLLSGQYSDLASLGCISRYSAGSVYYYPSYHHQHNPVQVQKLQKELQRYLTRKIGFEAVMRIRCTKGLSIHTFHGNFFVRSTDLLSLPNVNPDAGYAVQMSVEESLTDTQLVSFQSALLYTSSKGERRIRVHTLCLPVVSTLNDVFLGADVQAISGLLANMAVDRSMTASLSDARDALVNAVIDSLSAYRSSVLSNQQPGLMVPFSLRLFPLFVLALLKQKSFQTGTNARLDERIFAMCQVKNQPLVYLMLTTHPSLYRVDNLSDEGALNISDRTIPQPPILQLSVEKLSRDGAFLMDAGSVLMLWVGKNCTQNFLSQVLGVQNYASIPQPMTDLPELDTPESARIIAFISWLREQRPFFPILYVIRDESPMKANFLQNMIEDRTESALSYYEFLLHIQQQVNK

No constants are given. Whether binding was seen depends on the method and setting. Binding seen in cells or lysates may run through a third protein. A result given as binding can be weak or reduced; the word gives no strength. For part of these data: Where a sequence is shown, tags or fusion partners need not be part of it.

One experiment has as its target T1, SP-HA-TMED10 WT (UniProt P49755).
T1 sequence: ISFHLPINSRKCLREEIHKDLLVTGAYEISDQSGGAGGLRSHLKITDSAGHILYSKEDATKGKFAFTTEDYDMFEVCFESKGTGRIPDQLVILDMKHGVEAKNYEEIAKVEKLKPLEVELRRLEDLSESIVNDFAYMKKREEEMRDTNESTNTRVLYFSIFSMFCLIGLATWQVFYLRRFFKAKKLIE
The experiment is described as follows: cross-linking + co-IP; HEK TREx-293 TMED10 KO cells co-transfected; 0.2 mM DSP in PBS with 0.2 mM CaCl2, RT 30 min; lysis in 1.0% Triton X-100, 150 mM NaCl, 2 mM CaCl2, pH 7.5; anti-HA agarose or anti-V5 on Protein G Sepharose; immunoblot.

The target in the next experiment is LgBiT-SURF4 (UniProt O15260). The experiment is described as follows: split reporter; LgBiT-SURF4 and SmBiT-SEC24A or SmBiT-SEC24C co-expressed in HEK-293TREx double KO cells; NanoGlo Live Cell Substrate, room temperature 15 min; luminescence normalised to WT; also after 4-PBA (4 h) or siRNA against TMED10, TMED2 or LMAN1.

For the substance PCSK9-V5 (from UniProt Q8NBP7) (enzyme), the binding result with SP-HA-TMED10 WT is “binds”.

Regarding “SmBiT-SEC24A B-site mutant (from UniProt O95486)”, in the experiment with LgBiT-SURF4, the binding result is “binds”.

Take “SmBiT-SEC24A D-site mutant (from UniProt O95486)”: the binding entry in the experiment with LgBiT-SURF4 is given as “binds”.
